From paper doi:10.1101/2021.11.20.466133

Test system: RNAP (RNA polymerase)
Assay: EMSA
Details: positive control

“GGATACGTAACAACGCTTATGCATCGCCGCCGCTACATCCCTGAGCTGAC (double strand) [dsDNA 50mer]”: binds.

Construct, isoform or probe ends are uncertain for at least one entry.
